From PMC9505868
No constants are given. Whether binding was seen depends on the method and setting. Binding seen in cells or lysates may run through a third protein. A result given as binding can be weak or reduced; the word gives no strength.

Chains of the proteins cited; added tags and fusions are not shown. Lines headed by an entry give the natural chain unless they say otherwise; changes in a name come on top.
UniProt Q05128: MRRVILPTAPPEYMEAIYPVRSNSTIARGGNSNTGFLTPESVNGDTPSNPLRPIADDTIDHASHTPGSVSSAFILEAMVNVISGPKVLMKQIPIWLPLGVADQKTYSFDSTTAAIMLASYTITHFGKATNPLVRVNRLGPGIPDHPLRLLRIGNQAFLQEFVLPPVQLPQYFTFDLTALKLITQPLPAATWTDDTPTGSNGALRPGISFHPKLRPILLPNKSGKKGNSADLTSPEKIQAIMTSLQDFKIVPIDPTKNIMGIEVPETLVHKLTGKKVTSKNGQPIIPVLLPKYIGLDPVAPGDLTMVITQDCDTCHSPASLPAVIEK
UniProt P46939: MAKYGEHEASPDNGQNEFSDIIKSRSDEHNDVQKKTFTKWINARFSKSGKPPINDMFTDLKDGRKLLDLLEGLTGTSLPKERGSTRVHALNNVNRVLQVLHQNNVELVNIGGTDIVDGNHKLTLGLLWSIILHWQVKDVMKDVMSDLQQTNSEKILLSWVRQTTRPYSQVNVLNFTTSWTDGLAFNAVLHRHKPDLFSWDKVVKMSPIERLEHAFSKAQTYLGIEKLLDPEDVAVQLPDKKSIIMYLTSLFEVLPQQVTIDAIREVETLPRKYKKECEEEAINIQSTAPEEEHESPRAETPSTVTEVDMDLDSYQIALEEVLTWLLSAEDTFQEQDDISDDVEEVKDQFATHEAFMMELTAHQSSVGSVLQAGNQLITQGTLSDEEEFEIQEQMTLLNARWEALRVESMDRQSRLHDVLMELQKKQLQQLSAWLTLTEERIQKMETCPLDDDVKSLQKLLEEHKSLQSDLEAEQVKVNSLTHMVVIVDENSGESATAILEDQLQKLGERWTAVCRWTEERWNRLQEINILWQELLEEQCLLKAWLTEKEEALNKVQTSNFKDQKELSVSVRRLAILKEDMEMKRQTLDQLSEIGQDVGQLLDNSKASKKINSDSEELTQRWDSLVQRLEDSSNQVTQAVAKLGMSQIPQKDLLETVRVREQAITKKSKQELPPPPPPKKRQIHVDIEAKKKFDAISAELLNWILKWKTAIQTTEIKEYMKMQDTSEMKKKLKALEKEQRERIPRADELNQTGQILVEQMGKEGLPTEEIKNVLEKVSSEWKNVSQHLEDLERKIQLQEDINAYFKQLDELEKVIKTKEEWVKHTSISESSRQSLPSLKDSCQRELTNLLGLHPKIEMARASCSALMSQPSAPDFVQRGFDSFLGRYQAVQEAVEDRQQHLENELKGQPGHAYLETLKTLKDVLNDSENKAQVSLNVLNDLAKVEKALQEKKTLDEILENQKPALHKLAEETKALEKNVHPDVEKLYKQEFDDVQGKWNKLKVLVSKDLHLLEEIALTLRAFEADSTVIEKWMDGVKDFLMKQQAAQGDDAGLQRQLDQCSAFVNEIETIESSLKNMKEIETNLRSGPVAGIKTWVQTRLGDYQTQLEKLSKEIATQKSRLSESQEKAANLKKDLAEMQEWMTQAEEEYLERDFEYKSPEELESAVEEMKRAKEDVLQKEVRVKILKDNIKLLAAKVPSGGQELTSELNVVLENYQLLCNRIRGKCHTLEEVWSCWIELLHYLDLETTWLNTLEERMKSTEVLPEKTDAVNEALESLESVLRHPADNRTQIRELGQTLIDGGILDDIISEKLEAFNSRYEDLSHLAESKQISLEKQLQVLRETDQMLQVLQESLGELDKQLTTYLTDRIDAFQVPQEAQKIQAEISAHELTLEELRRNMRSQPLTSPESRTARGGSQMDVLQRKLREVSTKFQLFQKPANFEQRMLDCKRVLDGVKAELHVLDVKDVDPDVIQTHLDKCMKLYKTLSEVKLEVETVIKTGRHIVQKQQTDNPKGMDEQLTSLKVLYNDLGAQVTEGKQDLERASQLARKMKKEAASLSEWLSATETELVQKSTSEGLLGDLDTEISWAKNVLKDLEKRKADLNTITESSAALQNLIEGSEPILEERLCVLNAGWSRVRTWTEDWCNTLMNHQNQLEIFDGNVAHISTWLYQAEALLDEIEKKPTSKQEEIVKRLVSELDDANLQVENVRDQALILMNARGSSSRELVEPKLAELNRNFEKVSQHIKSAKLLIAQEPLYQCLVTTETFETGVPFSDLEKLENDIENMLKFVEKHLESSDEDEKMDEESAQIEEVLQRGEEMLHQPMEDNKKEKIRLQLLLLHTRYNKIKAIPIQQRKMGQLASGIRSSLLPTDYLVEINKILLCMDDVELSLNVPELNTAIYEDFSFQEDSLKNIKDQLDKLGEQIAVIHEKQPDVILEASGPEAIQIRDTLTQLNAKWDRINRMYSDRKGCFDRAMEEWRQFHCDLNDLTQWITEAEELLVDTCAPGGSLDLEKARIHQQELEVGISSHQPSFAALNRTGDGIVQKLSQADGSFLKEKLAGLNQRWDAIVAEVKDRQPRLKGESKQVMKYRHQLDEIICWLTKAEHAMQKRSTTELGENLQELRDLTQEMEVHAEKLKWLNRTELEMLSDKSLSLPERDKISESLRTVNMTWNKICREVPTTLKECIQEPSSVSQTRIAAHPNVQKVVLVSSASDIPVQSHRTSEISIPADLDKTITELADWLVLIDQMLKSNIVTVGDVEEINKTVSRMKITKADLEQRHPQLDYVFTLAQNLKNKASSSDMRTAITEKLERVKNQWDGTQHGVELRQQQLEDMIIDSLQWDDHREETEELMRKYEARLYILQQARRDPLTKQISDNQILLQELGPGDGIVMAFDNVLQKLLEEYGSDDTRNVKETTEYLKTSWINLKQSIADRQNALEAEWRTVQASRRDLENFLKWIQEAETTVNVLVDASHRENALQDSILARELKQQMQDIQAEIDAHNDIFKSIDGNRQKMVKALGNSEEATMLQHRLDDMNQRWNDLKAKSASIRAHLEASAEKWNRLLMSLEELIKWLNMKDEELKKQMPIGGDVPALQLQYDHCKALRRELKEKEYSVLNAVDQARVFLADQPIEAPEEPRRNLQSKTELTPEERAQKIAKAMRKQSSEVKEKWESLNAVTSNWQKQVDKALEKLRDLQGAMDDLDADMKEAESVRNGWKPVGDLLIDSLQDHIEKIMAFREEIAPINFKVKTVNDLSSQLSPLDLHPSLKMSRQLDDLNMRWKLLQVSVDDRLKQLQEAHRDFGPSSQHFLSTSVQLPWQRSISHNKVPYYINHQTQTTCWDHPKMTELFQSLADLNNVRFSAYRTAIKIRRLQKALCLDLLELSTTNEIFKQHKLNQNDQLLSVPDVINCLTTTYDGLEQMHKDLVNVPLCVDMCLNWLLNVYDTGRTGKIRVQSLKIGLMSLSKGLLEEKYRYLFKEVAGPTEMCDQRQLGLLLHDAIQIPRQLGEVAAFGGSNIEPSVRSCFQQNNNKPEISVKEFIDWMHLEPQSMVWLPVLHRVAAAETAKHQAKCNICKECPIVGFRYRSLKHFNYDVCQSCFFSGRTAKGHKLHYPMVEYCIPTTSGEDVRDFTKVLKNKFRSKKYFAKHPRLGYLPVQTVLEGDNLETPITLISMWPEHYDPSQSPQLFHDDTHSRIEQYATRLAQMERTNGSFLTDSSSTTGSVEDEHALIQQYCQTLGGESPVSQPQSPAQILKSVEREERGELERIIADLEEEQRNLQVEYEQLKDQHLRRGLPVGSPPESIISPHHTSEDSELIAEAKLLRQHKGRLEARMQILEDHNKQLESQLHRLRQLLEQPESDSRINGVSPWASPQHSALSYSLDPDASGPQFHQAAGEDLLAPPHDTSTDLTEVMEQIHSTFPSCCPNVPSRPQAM

Target: GFP10-VP40 (EBOV VP40 fused to the 10th beta-strand of GFP) (Ebola virus (EBOV)) (UniProt Q05128)
Assay: split reporter

“CH domain from utrophin fused to GFP B11 (from UniProt P46939) (domain or fragment)” was tested, and the binding was “binds”.
